PubChem BioAssay AID1259305, Sanger Institute | 2017
In all, the deposit lists 160 reagents; shown is an unselected part. 96 of all reagents (60%) were called active. 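Each call covers one siRNA sequence in one cell line only; gene-level confirmation needs agreement across siRNAs and lines.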 Reagents against one gene are numbered here. Not all columns of the deposit are shown. Not given: the amount of reagent, the time to read-out.

- Assay: 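Retest kinome siRNA screen hits for synergy with drugs in DIFI cells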 (follow-up of hits)
- Cells: human DIFI colorectal cancer cells
- Reagents: single siRNA against human genes
- Conditions: BYL719 1 µM, cetuximab 5 µg/ml or trametinib 10 nM, or DMSO vehicle, added one day after transfection; exposure time not given
- Measured: 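Survival relative to a non-targeting siRNA control pool averaged across replicates, with synergy scores per drug weighing the combination against siRNA only and drug only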
- Direction: synergy score with BYL719 and synergy score with Cetuximab and synergy score with Trametinib: higher = stronger combined killing than expected
- Call rule: 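An siRNA counts as synergistic (synthetic lethal) when its synergy score tops 0.10 for at least one of the three drugs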

IRAK3 (GeneID 11213) #1
- synergy score with BYL719: -0.0154
- synergy score with Cetuximab: 0.00089
- synergy score with Trametinib: 0.0398
- outcome: inactive

IRAK3 (GeneID 11213) #2
- synergy score with BYL719: 0.205
- synergy score with Cetuximab: 0.143
- synergy score with Trametinib: 0.264
- outcome: active

IRAK3 (GeneID 11213) #3
- synergy score with BYL719: 0.0389
- synergy score with Cetuximab: 0.134
- synergy score with Trametinib: -0.00552
- outcome: active

IRAK3 (GeneID 11213) #4
- synergy score with BYL719: -0.0923
- synergy score with Cetuximab: -0.0553
- synergy score with Trametinib: 0.0165
- outcome: inactive

GUCY2D (GeneID 3000) #1
- synergy score with BYL719: -0.00726
- synergy score with Cetuximab: 0.0647
- synergy score with Trametinib: 0.0523
- outcome: inactive

GUCY2D (GeneID 3000) #2
- synergy score with BYL719: 0.0985
- synergy score with Cetuximab: 0.141
- synergy score with Trametinib: 0.224
- outcome: active

GUCY2D (GeneID 3000) #3
- synergy score with BYL719: -0.0172
- synergy score with Cetuximab: -0.0542
- synergy score with Trametinib: 0.0642
- outcome: inactive

GUCY2D (GeneID 3000) #4
- synergy score with BYL719: -0.224
- synergy score with Cetuximab: -0.0368
- synergy score with Trametinib: -0.0952
- outcome: inactive

HSPB8 (GeneID 26353) #1
- synergy score with BYL719: 0.0689
- synergy score with Cetuximab: 0.145
- synergy score with Trametinib: 0.117
- outcome: active

HSPB8 (GeneID 26353) #2
- synergy score with BYL719: 0.0179
- synergy score with Cetuximab: 0.0123
- synergy score with Trametinib: -0.0172
- outcome: inactive

HSPB8 (GeneID 26353) #3
- synergy score with BYL719: 0.0766
- synergy score with Cetuximab: 0.0388
- synergy score with Trametinib: 0.17
- outcome: active

HSPB8 (GeneID 26353) #4
- synergy score with BYL719: 0.0531
- synergy score with Cetuximab: 0.0246
- synergy score with Trametinib: 0.141
- outcome: active

2 entries from above, limited to “synergy score with BYL719”:
IRAK3 (GeneID 11213) #4 = -0.0923
GUCY2D (GeneID 3000) #1 = -0.00726
